# Among all 580,000 compounds or so, about 6,100 (1.1%) were called active. This list was built around the results that the source calls inconclusive (neither active nor inactive); the mix of calls is not that of the screen. Calls come from the whole dose curve; as a rule, active = well fitted inhibition curve with a large enough effect; inconclusive = small, poorly fitted or top-dose-only effect, or another doubt; inactive = no such curve, though single readings can be large or run the other way. Potencies of inconclusive entries are doubtful fits and often do not repeat.
# By UniProt entry, the sequences of proteins in these tests, tags left out. Where a name states a change or a piece, a line headed by the entry shows the natural chain unless it says otherwise.
# UniProt P18054: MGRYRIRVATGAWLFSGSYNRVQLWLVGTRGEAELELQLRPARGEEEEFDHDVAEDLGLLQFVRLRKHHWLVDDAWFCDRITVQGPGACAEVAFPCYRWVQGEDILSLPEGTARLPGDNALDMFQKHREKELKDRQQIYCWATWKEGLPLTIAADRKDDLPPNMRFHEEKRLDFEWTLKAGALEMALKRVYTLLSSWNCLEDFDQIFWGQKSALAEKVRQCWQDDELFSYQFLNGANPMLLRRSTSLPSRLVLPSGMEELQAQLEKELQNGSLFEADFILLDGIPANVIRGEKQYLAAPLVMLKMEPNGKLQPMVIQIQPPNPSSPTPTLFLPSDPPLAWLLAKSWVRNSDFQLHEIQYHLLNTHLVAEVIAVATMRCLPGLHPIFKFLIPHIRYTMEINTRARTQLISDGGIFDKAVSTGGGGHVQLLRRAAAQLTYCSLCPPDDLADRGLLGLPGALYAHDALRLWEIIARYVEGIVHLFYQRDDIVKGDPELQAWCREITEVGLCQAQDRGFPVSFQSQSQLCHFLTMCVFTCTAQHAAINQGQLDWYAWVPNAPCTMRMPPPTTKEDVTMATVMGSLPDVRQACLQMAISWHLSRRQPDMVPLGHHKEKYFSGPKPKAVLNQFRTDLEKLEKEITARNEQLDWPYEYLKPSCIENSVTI
# Molecular target: Polyunsaturated fatty acid lipoxygenase ALOX12 (Homo sapiens) (UniProt P18054)
# Experiment: Primary qHTS assay for inhibitors of human arachidonate 12S-lipoxygenase (ALOX12): Round 2
# Details: purified 12hLO, xylenol orange hydroperoxide absorbance; activity change, negative = inhibition: at 108 µM (top of the series) unless noted
# Procedure, shortened: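 Purified human 12hLO (150 nM final) in 25 mM Hepes, 0.01% Triton X-100, pH 7.0 was preincubated 15 min at room temperature with compound. Then 40 uM arachidonic acid was added, 30 min. Hydroperoxide was read by Fe-XO absorbance ratio 573/405 nm.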
# % is set by controls: 0 for no effect and ±100 for the full control effect; potency is the fitted concentration of half-maximal effect.
SMILES,Potency,"activity change, negative = inhibition"
C[N+](C)(C)CCNC(=O)c1ccccc1,"inconclusive: 44.7 µM [inhibitor, partial curve]",
O=C(O)c1ncc(Cl)c(Cl)c1Cl,"inconclusive: 3.16 µM [inhibitor, full curve]",
CCCCSc1nnc(-c2cc(Br)ccc2N)c(=O)[nH]1,"inconclusive: 35.5 µM [inhibitor, partial curve]",
CC(CNC(=O)c1cncc(O)c1)NC(=O)c1cncc(O)c1 (centres undefined),"inconclusive: 17.8 µM [inhibitor, full curve]",
O=C(CN1C(=O)CSc2ccc(S(=O)(=O)N3CCCC3)cc21)Nc1cccc(Cl)c1,inactive,
Cc1cccc(C(=O)Nc2ccc(NC(=O)c3ccccc3)cc2)c1,"inconclusive: 112 µM [inhibitor, single point]",
Cc1ccc(N/N=C/C=C/c2ccco2)cc1,"inconclusive: 28.2 µM [inhibitor, partial curve, poor fit]",
Cc1sc2ncnc(N3CCC(C(=O)Nc4cccc(S(=O)(=O)N5CCCC5)c4)CC3)c2c1C,"inconclusive: 158 µM [inhibitor, partial curve, poor fit]",
CCN=C1NN=C(c2cc(C)n(C3CC3)c2C)CS1,"inconclusive: 89.1 µM [inhibitor, single point]",
COc1ccc(C2=C(C=O)Cc3ccccc3O2)cc1,"inconclusive: 112 µM [inhibitor, single point]",
CCCCN(C(=O)CSCc1ccc(C)cc1)c1c(N)n(Cc2ccccc2)c(=O)[nH]c1=O,"inconclusive: 39.8 µM [inhibitor, partial curve, poor fit]",
CCOc1ccc(-n2c(SC)nc3c(c2=O)SCC3)cc1,"inconclusive: 89.1 µM [inhibitor, partial curve, poor fit]",
NS(=O)(=O)c1ccc(NC(=O)Nc2ccccc2)cc1,inactive,
CCCCCCCCOc1ccc(/C=C(/C#N)c2nc3ccccc3[nH]2)cc1,"inconclusive: 44.7 µM [inhibitor, partial curve, poor fit]",
Cc1nc(Cl)c(C(=O)O)c(C)c1Cl,"inconclusive: 35.5 µM [inhibitor, partial curve, poor fit]",
CN(CC1(C)CCOCC1)C(=O)c1ccccc1Cl,inactive,
NC(=O)c1cc(S(=O)(=O)NCC2CCN(Cc3ccc(F)cc3)CC2)cs1,inactive,
COc1cccc(/C=N/NC(=O)c2nc(-c3ccccc3)cc(-c3ccccc3)n2)c1,inactive,
S=C(NCCNc1c(Cl)c(Cl)c(Cl)c(Cl)c1Cl)Nc1ccccc1,active: 12.6 µM,
CCSc1oc(-c2ccccc2)nc1S(=O)(=O)c1ccc(C)cc1,"inconclusive: 63.1 µM [inhibitor, partial curve, poor fit]",
CN(C)CC/C=C1\c2cc(F)ccc2CSc2ccccc21,"inconclusive: 20 µM [inhibitor, partial curve, poor fit]",
CCCCCCCN(C(=O)CCl)c1cccc(C)c1,inactive,
CC(=O)C12CC3CC(C1)CC(C(C)=O)(C3)C2,inactive,

# Three entries out of the list, sorted by SMILES length, smallest number first:
SMILES,Potency,"activity change, negative = inhibition"
O=C(O)c1ncc(Cl)c(Cl)c1Cl,"inconclusive: 3.16 µM [inhibitor, full curve]",
NS(=O)(=O)c1ccc(NC(=O)Nc2ccccc2)cc1,inactive,
Cc1cccc(C(=O)Nc2ccc(NC(=O)c3ccccc3)cc2)c1,"inconclusive: 112 µM [inhibitor, single point]",

# More entries follow:

SMILES,Potency,"activity change, negative = inhibition"
O=C(O)c1ccc(CSc2nnc(-c3ccco3)n2-c2ccccc2)cc1,inactive,
Cc1ccc(C(=O)c2ccccc2C(=O)O)cc1C,inactive,
c1ccc(C2Oc3ccccc3C3CC(c4cccs4)=NN32)cc1 (centres undefined),"inconclusive: 14.1 µM [inhibitor, partial curve, poor fit]",
CC1(C)CC(=O)C2=C(C1)OC1=C(C(=O)CC(C)(C)C1)C2c1cccc(O)c1,inactive,
CCN1C(=O)[C@@H]2C(C(=O)c3cnccn3)=NN[C@@H]2C1=O,"inconclusive: 35.5 µM [inhibitor, partial curve, poor fit]",
CC(=O)C1=C(O)C(=O)N(CCC(=O)O)C1c1ccccc1[N+](=O)[O-] (centres undefined),"inconclusive: 12.6 µM [inhibitor, full curve, poor fit]",
COc1cc(/C=C2/C(=N)N3N=C(C(C)C)SC3=NC2=O)ccc1OS(=O)(=O)c1ccccc1,"inconclusive: 39.8 µM [inhibitor, partial curve, poor fit]",
O=C(CNCc1ccco1)Nc1ccccc1-n1cccc1,"inconclusive: 1.58 µM [inhibitor, full curve, poor fit]",
O=C(Oc1ccc(/C=N/Nc2ccccc2)cc1)c1ccccc1,"inconclusive: 31.6 µM [inhibitor, partial curve, poor fit]",
O=C1CC(N2CCN(S(=O)(=O)c3ccccc3F)CC2)C(=O)N1c1ccccc1F (centres undefined),"inconclusive: 39.8 µM [inhibitor, single point]",
S=C(NCCc1c[nH]c2ccccc12)Nc1ccc(Cl)cc1,"inconclusive: 63.1 µM [inhibitor, partial curve, poor fit]",
Cc1ccc(NC(=O)N2CCN(Cc3ccc4c(c3)OCO4)CC2)cc1,inactive,
Cc1cc(Br)c2c(c1)/C(=C/C(=O)c1cccs1)C(=O)N2,"inconclusive: 35.5 µM [inhibitor, partial curve, poor fit]",
O=C(NCc1cccc(C(F)(F)F)c1)NCc1coc(-c2cccs2)n1,"inconclusive: 70.8 µM [inhibitor, partial curve, poor fit]",
CCOc1ccc(C(=O)CC2(O)C(=O)Nc3ccc(CC)cc32)cc1 (centres undefined),"inconclusive: 100 µM [inhibitor, single point]",
CCn1ccc(C(=O)N2CCC(c3nn(C)c4c3COCC4)CC2)n1,inactive,
C=CCn1c(SCc2nc3ccccc3[nH]2)nnc1-c1ccccn1,inactive,
CCN=c1scc(C)n1/N=C/c1cc(Br)c(O)c(OC)c1,"inconclusive: 35.5 µM [inhibitor, partial curve, poor fit]",
COC(=O)C(C#N)c1nc2ccccc2nc1Cl (centres undefined),"inconclusive: 50.1 µM [inhibitor, partial curve]",
CC(C)NC(=O)CSc1ccccc1C(=O)Nc1ccccc1C(=O)NC1CC1,inactive,
Cc1cc(C)c(NC(=O)Cn2c(N(C)Cc3ccccc3)nc(C)cc2=O)c(C)c1,inactive,
CC1=C(C(=O)Nc2ccc(C)cc2C)C(c2ccc(Br)cc2)NC(=O)N1 (centres undefined),"inconclusive: 50.1 µM [inhibitor, partial curve, poor fit]",
COc1cc(/C=N/n2c(C)n[nH]c2=S)ccc1OCc1ccc(F)cc1,"inconclusive: 44.7 µM [inhibitor, partial curve, poor fit]",

SMILES,Potency,"activity change, negative = inhibition"
COc1ccccc1CCn1cnc(-c2cccc(F)c2)c1C(C)C,"inconclusive: 50.1 µM [inhibitor, partial curve, poor fit]",
CCCCCCCn1c(SCC(N)=O)nc2c1c(=O)[nH]c(=O)n2C,"inconclusive: 50.1 µM [inhibitor, partial curve, poor fit]",
CCOc1ccc(NC(=O)c2cc(S(=O)(=O)NC3CCCCCC3)ccc2F)cc1,"inconclusive: 112 µM [inhibitor, single point]",
COc1ccc(/C=N/NC(C)(C)C)c(OC)c1,"inconclusive: 50.1 µM [inhibitor, partial curve, poor fit]",
CCOc1ncccc1C(=O)N1CCN(c2cc(Cl)ccc2C)CC1,inactive,
CCN(C(=O)CN(C)S(=O)(=O)c1cc2c(cc1C)NC(=O)C(C)O2)c1ccc(OC)cc1 (centres undefined),"inconclusive: 39.8 µM [inhibitor, partial curve, poor fit]",
COc1cc(-c2cnc3c(NC(C)=O)cc(-c4cccc(C(=O)NCCO)c4)cn23)cc(OC)c1OC,"inconclusive: 10 µM [inhibitor, full curve]",
O=C(CCCCCNc1nc(=S)[nH]c2ccccc12)NCCc1c[nH]c2ccccc12,"inconclusive: 89.1 µM [inhibitor, partial curve, poor fit]",
CSc1cccc(NC(=O)CCS(=O)(=O)c2cccc3nonc23)c1,"inconclusive: 0.251 µM [inhibitor, full curve, poor fit]",
COc1ccc2c(c1)CCc1c(C(=O)Nc3c(C)nn(Cc4ccccc4)c3C)noc1-2,inactive,
COc1ccc(/C=C/c2c(-c3ccc(OC)cc3)oc3ccccc23)cc1,,inconclusive: -32.9% [inhibitor]
COc1cc(C)cc2oc(=O)c(CC(=O)Nc3ccc(Cn4cncn4)cc3)c(C)c12,inactive,
Cc1ccc2[nH]c(=O)c(C(c3nnnn3CCc3ccccc3)N3CCOCC3)cc2c1 (centres undefined),"inconclusive: 5.62 µM [inhibitor, full curve, poor fit]",
O=C(CCCN1C(=O)/C(=C/c2cccs2)SC1=S)Nc1ccccn1,inactive,
O=C(O)C#CC(O)(c1ccccc1)c1ccccc1,"inconclusive: 44.7 µM [inhibitor, partial curve, poor fit]",
COc1ccc2c(c1)C(=O)N(Cc1ccccc1)C(=O)C2(C)C,inactive,
O=C(N/N=C/C(Cl)=C/c1ccccc1)c1ccncc1,inactive,
CN(CCOc1cccc2ccccc12)Cc1ccccc1,"inconclusive: 0.355 µM [inhibitor, full curve, poor fit]",
COc1ccccc1NC(=O)Nc1nc(CC(=O)NCCC(C)C)cs1,"inconclusive: 112 µM [inhibitor, partial curve, poor fit]",
O=C(N[C@H](CO)c1ccccc1)C1CCC(CNS(=O)(=O)c2ccc(Cl)cc2)CC1 (some centres undefined),"inconclusive: 35.5 µM [inhibitor, partial curve, poor fit]",
Cc1nc(N2CCS(=O)CC2)c2cc(-c3ccccc3)sc2n1,inactive,
COc1ccc(CN(C)c2nn3c(=O)cc(C)nc3s2)cc1,inactive,
O=C(Nc1nc2ccc(F)cc2s1)C1=NN(c2ccccc2)C(=O)CC1,"inconclusive: 141 µM [inhibitor, partial curve, poor fit]",
